# These are yes or no findings as the source states them, for the method shown. Binding seen in cells or lysates may run through a third protein. Some entries that bind do so weakly or less than the wild type. For some assays here: Sequences can lack the tags named with a protein.
# Chains of the proteins cited; added tags and fusions are not shown.
# UniProt P35222: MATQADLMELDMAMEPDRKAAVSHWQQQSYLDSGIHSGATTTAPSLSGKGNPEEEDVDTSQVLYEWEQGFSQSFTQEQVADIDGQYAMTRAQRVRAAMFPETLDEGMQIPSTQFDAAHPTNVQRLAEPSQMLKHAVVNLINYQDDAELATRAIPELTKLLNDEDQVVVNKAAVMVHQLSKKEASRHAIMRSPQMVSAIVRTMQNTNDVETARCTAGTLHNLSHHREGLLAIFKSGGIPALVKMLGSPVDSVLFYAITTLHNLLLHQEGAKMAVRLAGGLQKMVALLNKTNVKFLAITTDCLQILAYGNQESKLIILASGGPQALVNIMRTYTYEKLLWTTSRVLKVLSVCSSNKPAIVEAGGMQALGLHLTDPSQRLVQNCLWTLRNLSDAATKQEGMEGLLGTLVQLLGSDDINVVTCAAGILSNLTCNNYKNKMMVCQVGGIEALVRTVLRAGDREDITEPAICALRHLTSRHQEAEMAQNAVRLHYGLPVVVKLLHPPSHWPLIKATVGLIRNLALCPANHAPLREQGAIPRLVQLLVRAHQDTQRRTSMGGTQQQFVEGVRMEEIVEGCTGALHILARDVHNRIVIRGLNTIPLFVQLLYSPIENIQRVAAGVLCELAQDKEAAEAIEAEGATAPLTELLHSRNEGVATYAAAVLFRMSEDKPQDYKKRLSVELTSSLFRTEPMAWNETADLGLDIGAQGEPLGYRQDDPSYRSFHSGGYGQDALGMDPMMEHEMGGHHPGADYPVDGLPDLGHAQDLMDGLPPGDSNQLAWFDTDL
# T1: FLAG-tagged RORα1 (UniProt P35398)
# T1 sequence: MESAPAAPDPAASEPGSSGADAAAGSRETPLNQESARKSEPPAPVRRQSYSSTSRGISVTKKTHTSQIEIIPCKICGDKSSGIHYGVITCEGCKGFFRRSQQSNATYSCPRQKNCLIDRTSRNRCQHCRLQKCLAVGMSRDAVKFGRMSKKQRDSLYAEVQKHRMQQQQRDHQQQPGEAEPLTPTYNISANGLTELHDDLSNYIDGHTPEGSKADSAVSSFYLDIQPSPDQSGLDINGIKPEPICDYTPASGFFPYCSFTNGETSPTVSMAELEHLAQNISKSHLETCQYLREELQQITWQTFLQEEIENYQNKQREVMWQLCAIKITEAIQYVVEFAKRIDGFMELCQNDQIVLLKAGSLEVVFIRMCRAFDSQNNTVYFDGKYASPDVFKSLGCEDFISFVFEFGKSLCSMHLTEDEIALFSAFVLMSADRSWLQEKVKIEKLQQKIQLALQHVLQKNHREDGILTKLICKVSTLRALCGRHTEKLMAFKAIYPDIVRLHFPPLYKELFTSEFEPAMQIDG
# How the values were obtained:
# FLAG-tagged RORα1 = molecular target: T1, FLAG-tagged RORα1; assay: co-IP; endogenous β-catenin co-immunoprecipitated with FLAG-tagged RORα constructs; cell line not stated
# GST fusion of β-catenin = GST fusion of β-catenin (UniProt P35222); assay: pull-down; GST β-catenin bound to Glutathione-Sepharose beads, incubated with in vitro transcribed and translated RORα proteins; 20 mM Tris-HCl (pH 7.5), 150 mM NaCl, 0.2% Nonidet P40, 10% glycerol; Western blot; only the target purified
Molecule,binding (FLAG-tagged RORα1),binding (GST fusion of β-catenin)
endogenous β-catenin (from UniProt P35222 1-781),binds,–
"RORα1 (retinoic acid receptor-related orphan receptor α, isoform 1), in vitro transcribed and translated (protein, UniProt P35398 1-523) MESAPAAPDPAASEPGSSGADAAAGSRETPLNQESARKSEPPAPVRRQSYSSTSRGISVTKKTHTSQIEIIPCKICGDKSSGIHYGVITCEGCKGFFRRSQQSNATYSCPRQKNCLIDRTSRNRCQHCRLQKCLAVGMSRDAVKFGRMSKKQRDSLYAEVQKHRMQQQQRDHQQQPGEAEPLTPTYNISANGLTELHDDLSNYIDGHTPEGSKADSAVSSFYLDIQPSPDQSGLDINGIKPEPICDYTPASGFFPYCSFTNGETSPTVSMAELEHLAQNISKSHLETCQYLREELQQITWQTFLQEEIENYQNKQREVMWQLCAIKITEAIQYVVEFAKRIDGFMELCQNDQIVLLKAGSLEVVFIRMCRAFDSQNNTVYFDGKYASPDVFKSLGCEDFISFVFEFGKSLCSMHLTEDEIALFSAFVLMSADRSWLQEKVKIEKLQQKIQLALQHVLQKNHREDGILTKLICKVSTLRALCGRHTEKLMAFKAIYPDIVRLHFPPLYKELFTSEFEPAMQIDG",–,binds

# Reference: article PMC6479703
